Reference: paper PMC3585367
Results are given in words; binding and its absence hold for the method and conditions named. In cells and extracts the contact can be indirect. Some entries that bind do so weakly or less than the wild type.

The chains behind the UniProt entries cited, without tags or fusion partners.
UniProt O15524: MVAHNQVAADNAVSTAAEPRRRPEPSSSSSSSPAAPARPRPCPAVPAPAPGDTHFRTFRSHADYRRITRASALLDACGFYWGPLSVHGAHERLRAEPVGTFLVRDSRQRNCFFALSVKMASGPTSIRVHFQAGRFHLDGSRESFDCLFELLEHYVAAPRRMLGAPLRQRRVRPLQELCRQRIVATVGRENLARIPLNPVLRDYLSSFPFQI

Molecular target: T1, CYTIP (cytohesin interacting protein), endogenous in mature dendritic cells (human (endogenous in monocyte derived dendritic cells)) (UniProt O60759)
T1 sequence: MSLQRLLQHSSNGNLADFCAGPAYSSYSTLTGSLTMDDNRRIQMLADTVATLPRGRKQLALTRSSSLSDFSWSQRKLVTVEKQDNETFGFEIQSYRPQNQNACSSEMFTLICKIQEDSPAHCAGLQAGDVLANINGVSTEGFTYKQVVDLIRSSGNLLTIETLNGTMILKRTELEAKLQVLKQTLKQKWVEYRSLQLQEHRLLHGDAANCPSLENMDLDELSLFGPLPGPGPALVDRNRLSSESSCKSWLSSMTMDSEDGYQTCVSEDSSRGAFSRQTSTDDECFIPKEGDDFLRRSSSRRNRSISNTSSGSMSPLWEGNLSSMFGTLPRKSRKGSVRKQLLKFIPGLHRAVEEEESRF
Assay: co-IP; 2 mg lysate of mature dendritic cells in modified RIPA buffer; rat anti CYTIP antibody 1A3, 4 h at 4 C, Protein L agarose overnight at 4 C; Western blot for SOCS-1

- binding: binds
Substance: Suppressor of cytokine signaling-1 (SOCS-1), endogenous in mature dendritic cells (from UniProt O15524 1-211)
